These are yes or no findings as the source states them, for the method shown. In cells and extracts the contact can be indirect. A result given as binding can be weak or reduced; the word gives no strength. Tags and fused reporters may be left off the sequences shown.
Molecular target: Rsc2 with CBP tag only (bait for the RSC2 complex) (yeast (S. cerevisiae)) (UniProt Q06488)
Assay: co-IP; yeast extracts; primary enrichment with anti-HA (Rep1), anti-Myc (Rep2) or anti-CBP (Rsc2-CBP or Rsc1-CBP); western blot with each of these antibodies

By UniProt entry, the sequences of proteins in these tests, tags left out. Where a name states a change or a piece, a line headed by the entry shows the natural chain unless it says otherwise.
UniProt Q06488: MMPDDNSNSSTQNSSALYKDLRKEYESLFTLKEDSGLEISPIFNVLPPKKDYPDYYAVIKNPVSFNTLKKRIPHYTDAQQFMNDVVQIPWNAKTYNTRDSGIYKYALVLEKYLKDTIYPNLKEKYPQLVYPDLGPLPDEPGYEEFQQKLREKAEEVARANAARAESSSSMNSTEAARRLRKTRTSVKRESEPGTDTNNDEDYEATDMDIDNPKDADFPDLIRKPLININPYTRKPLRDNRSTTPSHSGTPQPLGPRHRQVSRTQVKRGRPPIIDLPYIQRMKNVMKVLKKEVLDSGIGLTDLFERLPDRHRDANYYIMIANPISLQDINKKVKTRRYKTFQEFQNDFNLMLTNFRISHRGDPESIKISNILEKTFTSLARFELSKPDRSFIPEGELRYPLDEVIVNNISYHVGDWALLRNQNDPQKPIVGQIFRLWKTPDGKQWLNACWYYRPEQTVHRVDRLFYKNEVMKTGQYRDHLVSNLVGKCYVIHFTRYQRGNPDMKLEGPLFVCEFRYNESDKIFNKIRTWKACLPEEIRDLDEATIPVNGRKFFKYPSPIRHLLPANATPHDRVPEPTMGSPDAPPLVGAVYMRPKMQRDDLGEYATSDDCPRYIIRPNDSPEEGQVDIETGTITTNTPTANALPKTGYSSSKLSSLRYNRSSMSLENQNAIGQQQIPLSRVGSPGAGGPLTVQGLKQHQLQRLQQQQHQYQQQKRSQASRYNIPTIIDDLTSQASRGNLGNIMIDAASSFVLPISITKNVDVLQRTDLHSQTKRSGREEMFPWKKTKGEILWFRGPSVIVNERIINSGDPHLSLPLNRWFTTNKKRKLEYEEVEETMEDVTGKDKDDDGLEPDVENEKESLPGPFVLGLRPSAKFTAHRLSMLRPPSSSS

B1: HA-tagged Rep1 expressed in yeast (protein, UniProt P03871 1-373)
chain: MNGERLLACIKQCIMQHFQPMVYDESRCVIETTRGTFPVPDNYKKYKTLAFAFVGHVLNTDDTPVIEKELDWPDPALVYNTIVDRIINHPELSQFISVAFISQLKATIGEGLDINVKGTLNRRGKGIRRPKGVFFRYMESPFVNTKVTAFFSYLRDYNKIASEYHNNTKFILTFSCQAYWASGPNFSALKNVIRCSIIHEYISKFVEREQDKGHIGDQELPPEEDPSRELNNVQHEVNSLTEQDAEADEGLWGEIDSLCEKWQSEAEDQTEAEIIADRIIGNSQRMANLKIRRTKFKSVLYHILKELIQSQGTVKVYRGSSFSHDSIKISLHYEEQHITAVWVYLTVKFEEHWKPVDVEVEFRCKFKERKVDG
  binding: binds

B2: Myc-tagged Rep2 expressed in yeast (protein, UniProt P03872 1-296)
chain: MDDIETAKNLTVKARTAYSVWDVCRLFIEMIAPDVDIDIESKRKSDELLFPGYVIRPMESLTTGRPYGLDSSAEDSSVSSDSSAEVILPAAKMVKERFDSIGNGMLSSQEASQAAIDLMLQNNKLLDNRKQLYKSIAIIIGRLPEKDKKRATEMLMRKMDCTQLLVPPAPTEEDVMKLVSVVTQLLTLVPPDRQAALIGDLFIPESLKDIFNSFNELAAENRLQQKKSELEGRTEVNHANTNEEVPSRRTRSRDTNARGAYKLQNTITEGPKAVPTKKRRVATRVRGRKSRNTSRV
  binding: binds
